Patent US20180244758A1
No constants are given. Whether binding was seen depends on the method and setting. Some results given as binding are weak or reduced against the parent protein; the word gives no strength.

Tests used:
[1] = target: SUDV GP (Sudan virus (SUDV)) (UniProt Q66814); experiment: ELISA, GP antigen coated, mAb at 0.2 µg/ml
[2] = target: TAFV GP (Tai Forest virus (TAFV)) (UniProt Q66810); experiment: ELISA, GP antigen coated, mAb at 0.2 µg/ml

Binder | binding [1] | binding [2]
mAb PE-47 (antibody, V domains shown) VH: EVQLVESGGGLVKPGGSLRLSCAASGFTFSNAWMSWVRQAPGEGLEWVGRIKSKTDGGTIDYAAPVKGRFTISRDDSKNTVYLQMTSLKTEDTAVYYCTTYTEDMQYFDWLLRGGETFDYWGQGTLVTVSS VL: DIQMTQSPSSLSASVGDRVTITCRASQYISTYLNWYQQKPGKAPKLLIYAAYNLQSGVPSRFSGSGSGTDFTLTISSLQPEDFATYYCQQSYSTPGRYTFGQGTKVEIK | binds | binds
mAb PE-87 (antibody, V domains shown) VH: QVQLVQSGVTLVQPGGSLRVSCAASGFTFSSYAMSWVRQAPGKGLEWVSAISGLGGSTYYADSVKGRFTISRDNSKNTLYLQMNSLRAEDTAVYYCAKDHRVWAAGYHFDYWGQGALVTVSS VL: DIVLTQSPSTLSASVGDRVTITCRASQSISSWLAWYQQKPGEAPKLLISDASSLESGVPSRFSGSGSGTEFTLTISSLQPDDFATYYCQQYYSSPTFGGGTKVEIK | binds | binds
mAb PE-24 (antibody, V domains shown) VH: EVQLVESGGGLVQPGGSLRLSCAASGFTFSSYAMSWVRQAPGKGLEWVSEISGLGGSTYYADSAKGRFTISRDNSKSTLYLQMNSLRAEDTAVYYCAKDHRVWAPGYYFDHWGQGTLVTVSS VL: DIVLTQSPSTLSASVGDRVTITCRASQSISSWLAWYQQKPGKAPKLLIYDASSLESGVPSRFSGSGSGTEFTLTISSLQPDDFATYFCQQYNRSPTFGGGTKVEIK | binds | binds
mAb PE-16 (antibody, V domains shown) VH: QVQLVQSGAEVTKPGASVKVSCKASGYTFTTYYMHWVRQAPGQGLEWVGIINPSGGITRYAQKFQGRVTLTRDTSTTTVYMELSSLRSEDTAVYYCARDRYPVLFATDYGMDVWGQGTTVTVSS VL: DIVMTQSPATLSLSPGERATLSCRASQSVSGYLAWYQQKPGQAPRLLIYDASNRATGIPARFSGSGSGTDFTLTISSLEPEDFAVYYCQQRSIWPPGVTFGGGTKVEIK | binds | binds
